# Percent effect of library compounds

Source: ChEMBL document CHEMBL3988442, “University of Dundee, Small-Polar-MMV Screening Library” (2021).

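Whole-cell growth test on Mycobacterium tuberculosis, read after 4 days in a medium based on cholesterol and the lipid DPPC; the read-out is not stated. Tested at 50 µM. The record gives no direction; compounds that gave an IC50 in retests scored well above the rest, so higher reads as more growth inhibition. Size under these conditions: about 69,000 compounds, about 370 of them at 50% or above in at least one test.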

The filed quantity is “Percent Effect” (%).
The record does not define 0% and 100%; most values in the screen are far below 50% and negative numbers occur (in some assays of this library far below -100).
This is an unselected part of the compounds tested.
Two or more numbers in one place are separate tests of the same structure; such repeats can differ widely.

SMILES	Percent Effect
CC(C)Cc1cc(NC(=O)c2n[nH]c3ccccc23)n(C)n1	7.015%
O=C1CC(c2ccccc2)C2(CCN(Cc3ccncc3)CC2)N1 (stereo unspecified)	-15.63%
COc1c(CNCCNC(=O)Cc2ccc(F)cc2)c(C)nn1C	-19.26%
[H][C@@]12CCN(C(=O)Cc3cccs3)[C@@]1([H])CC(=O)N2CC1CC1	2.481%
Cc1ncnc2c1CCN(C(=O)c1cccnc1)CC2	12.42%
CN(C)c1ccc(CC2CCN(c3cnccn3)CC2)nn1	11.98%
O=C(CCOc1ccccc1Cl)N1CCN(c2cnccn2)CC1	-8.387%
O=C(CCCn1cnc2ccccc2c1=O)Nc1nc[nH]n1	-16.9%
Cc1nc(CN2CCCC2Cn2cncn2)nc2ccccc12 (stereo unspecified)	17.51%
O=C(O)C(F)(F)F.O=C1COC2(CCN(Cc3cccs3)CC2)CN1c1cncnc1	12.54%
CNC(=O)C1CN(C(=O)c2ccccc2)Cc2cn(C)nc21 (stereo unspecified)	-1.851% and -23.85%
[H][C@]12CCN(C(=O)N3CCOCC3)C[C@@]1([H])OCCN(S(C)(=O)=O)C2	-5.581%
CN(Cc1c(F)cccc1Cl)C(=O)CN(C)C1CCc2ccccc21 (stereo unspecified)	10.17%
OCCCN1CCCC1c1nc(Cc2ccc(F)cc2)no1 (stereo unspecified)	-18.95%
[H][C@]12CCC[C@@]1(COCC1CC1)CN(S(=O)(=O)N(C)C)C2	-12.3%
CCN1CCCCC1C(=O)N1CCC(OC2CCCC2)CC1 (stereo unspecified)	4.724%
O=C(CSC1=NS(=O)(=O)c2cc(Cl)ccc2N1)c1ccccc1	-47.81%
O=C(CC1CC1)N1CCN(Cc2cccnc2)c2ncccc2C1.O=C(O)C(F)(F)F.O=C(O)C(F)(F)F	-19.44%
Cl.NCC(=O)N1CCCC1c1n[nH]cc1-c1ccccc1F (stereo unspecified)	42.7%
Cc1c(CNCc2nn(-c3ccccc3)c3c2CCC3)cc(C#N)n1C	24.01%
COC(=O)N1CCCC(NC(=O)NCc2nc(C)cs2)C1 (stereo unspecified)	-0.4621%
COCC(C)N(C)C(=O)c1nc(S(C)(=O)=O)n2ccccc12 (stereo unspecified)	-11.26%
CCC(Oc1ccc(N(C)S(C)(=O)=O)cc1)C(=O)NC (stereo unspecified)	-0.5699%
COCCS(=O)(=O)NCC(C)c1cccc(C)c1 (stereo unspecified)	-23.43%
CC(NC(=O)Cc1ccccc1F)C(=O)N1CCS(=O)(=O)CC1 (stereo unspecified)	2.226%
Cl.c1cc(NCc2ccncc2)nc(C2CCCN2)c1 (stereo unspecified)	3.723% and 26.03%
COc1ccc(N2CCCC3(C2)CN(c2nncs2)CCO3)cc1 (stereo unspecified)	-18.82% and 3.403%
COCCN(CCOC)c1ncc(C#N)cc1Cl	-17.08%
CC(C(=O)N(Cc1ccc(F)cc1)CC(F)(F)F)S(C)(=O)=O (stereo unspecified)	8.968%
CC(C)c1nnc2n1CCN(CCC(=O)Nc1sccc1C#N)C2	1.985%
CCn1nccc1CNC(=O)C1CCCCC1	18.2%
COCc1nc(C2CCN(Cc3nccn3C)CC2)no1	-2.03%
CCN(CC)[C@H]1C[C@@H](Cc2cc(CO)on2)C1(C)C	11.44%
COCC(=O)NCC(Cc1cccc(F)c1)n1cccc1 (stereo unspecified)	4.615%
CCn1c(CN(C)C)nnc1C1CCN(Cc2ccccn2)CC1	-20.33% and -8.603%
Cc1cnn(C2CN(Cc3ccc4c(c3)OCCO4)C2)c1	-19.52%
Cc1noc(-c2ccnc(N3CCCN(C4CCOCC4)CC3)c2)n1	0.7659%
CC(C)c1nc2n(n1)CC(NCc1nnnn1C1CC1)CC2 (stereo unspecified)	4.049%
CC(C)CCc1n[nH]c(C(=O)O)c1I	21.11%
CCOC(=O)NC(C(=O)NCc1ccc(N2CCCCC2)nc1)C(C)C (stereo unspecified)	-28.39%
CCc1noc(C)c1C(=O)N1CCN(c2nc(C)cc(OC)n2)CC1	-5.611%
O=C(c1cc2c(s1)CCC2)N1CCC(c2cnccn2)CC1	28.58%
Cc1ccn(-c2ccc(N3CCCN(Cc4ccccc4)CC3)nn2)n1	-8.072%
[H][C@@]12COC[C@]1([H])[C@@H](OCc1ccccn1)CN2C(=O)c1ccc[nH]1	-1.609%
CSC(C)C(=O)Nc1ccnn1-c1ccccc1C (stereo unspecified)	-15.41%
COCCn1ccc(=O)c(OCC(=O)Nc2ccccc2)c1C	9.203%
c1ccc(C2CN(C3CC3)CC3(CCN(Cc4ncc[nH]4)CC3)C2)cc1 (stereo unspecified)	-6.298%
CC(C)NC(=O)CN1CCN(CC2CCOc3ccccc3C2)CC1 (stereo unspecified)	-26.31%
O=c1[nH]nc(SCC2CCCO2)n1C1CC1 (stereo unspecified)	-33.31%
CC(C)N1CCC(CNC(=O)CCc2cc(F)ccc2F)C1 (stereo unspecified)	22.84%
CC(C)N1CC(C(=O)N2CCc3c(nc(CC4CC4)[nH]c3=O)C2)CC1=O (stereo unspecified)	-2.597%
Cc1nc(NC2CCCC2)c2c(n1)c(C)nn2C	11.85%
O=C(NCCCn1nc2ccccn2c1=O)Nc1ccc(F)cc1F	-15.31%
O=C1N(Cc2cccc(F)c2F)CCCC1(O)CNCC1CCCCC1 (stereo unspecified)	10.96%
Cc1cccc2nc(CSCC(=O)Nc3nnc(C(C)C)s3)cc(=O)n12	-17.17%
COc1ccc(OCCN(C)CCCn2cnc3c(N)ncnc32)cc1	-7.123%
Cc1nc(N2CCCC2)nc2c1CN(C(=O)NC(C)C)CC2	-2.46% and 3.087%
CC(Cn1cncn1)NCc1csc2c1CCCC2 (stereo unspecified)	0.04167%
COc1c(C)cnc(CN2CCOC(Cn3cc(C)cn3)C2)c1C (stereo unspecified)	15.72%
Cc1cc(C(=O)N(C)CCN(C)C(=O)OC(C)(C)C)oc1C	-13.11%
CN(CCc1ccccc1)Cc1c(C2CC2)[nH]c2ncccc12	-15.26% and -3.297%
O=C(O)C(F)(F)F.O=C(O)C(F)(F)F.[H][C@@]12CN(C(=O)c3ccnnc3)C[C@]1([H])OCCN2CCN1CCCC1	-10.62%
c1cc(-c2c[nH]c([C@@H]3COCCN3CC3CC3)n2)ccn1	2.261%
NCC1(CN2CCOCC2)CCCCC1	4.324%
Cn1ncnc1NS(=O)(=O)c1ccc(F)cc1	-4.089%
CC(C)c1nn(C)c(N2CCOCC2)c1CNC(C)c1cccs1 (stereo unspecified)	-8.296%
COCCn1cc(C(=O)N2CCCC2c2ccncc2)c2ccccc21 (stereo unspecified)	5.463%
Cc1nc(C)n(CC2CCCN2Cc2nc3ccccc3nc2C)n1 (stereo unspecified)	-16.3%
CCNc1ncc(C(=O)NCCCc2ccncc2)cn1	1.316%
NC(=O)c1ccc(C(=O)N(Cc2ccc(O)cc2)CC2CC2)cc1	-2.969%
Cc1noc(C2CCCN(C(=O)c3cc(Cl)cn3C)C2)n1 (stereo unspecified)	5.096% and 8.215%
Cc1cncnc1C1CCN(CCO)CC1	-4.905%
COc1ccc(C2CCCN2C(=O)c2cc3c([nH]c2=O)CCC3)cc1 (stereo unspecified)	-6.342% and 0.8657%
NC(=O)N1CC(OCc2cccc3ccccc23)C1	-4.172%
CC(Cn1ccnc1)NC(=O)NCc1ccccn1 (stereo unspecified)	5.626%
Cc1nccn1C1CCCN(C(=O)CCOCC(F)(F)F)C1 (stereo unspecified)	-8.88%
CCc1ccc(C(C)NCc2nccn2Cc2ccccc2)o1 (stereo unspecified)	3.407%
CCC(=O)c1ccccc1NN1c2ccccc2C(=O)C1(C)OC (stereo unspecified)	4.152%
CC(C)Oc1ccc(CC2=N[C@](C)(CO)CO2)cc1	-20.35%
[H][C@@]12CCCC[C@]1(O)CCN(C(=O)c1ccc(OC)c(OC)c1)C2	-40.79%
Cc1n[nH]c(C2CN(CCCOc3ccc(F)cc3)CCO2)n1 (stereo unspecified)	1.115%
CCS(=O)(=O)N1CCC2(CC1)CC(CC(=O)NC1CC1)c1ccccc12 (stereo unspecified)	-12.76%
CNc1nc(C2CCCN(C(=O)C(C)C)C2)nc2c1CN(C)CC2 (stereo unspecified)	-8.12%
Cc1cc(O)c(OCC(=O)Nc2nccs2)cn1	-4.425%
O=C(O)c1cc(S(=O)(=O)Nc2ccc(Cl)cc2)cc2c1OCCO2	-2.51%
Cc1ccc(OCCCC(=O)NC(C)c2nnc3n2CCC3)cc1 (stereo unspecified)	-18.52%
COCC(=O)N1CCC2(CC(C(=O)NCc3cccnc3)=NO2)C1 (stereo unspecified)	-2.613%
Cc1cnc(C(=O)N2CCC3(CC2)C(=O)NCCN3CC(C)C)cn1	-5.816%
CC(C)c1nnc2n1CC(CNCc1nnc(C(C)(C)C)o1)CC2 (stereo unspecified)	8.305%
COc1ccc(C(=O)NCCCC2(C3OCCO3)CCOCC2)cc1	0.6446%
CCOc1cc(CN[C@@H]2COC[C@H]2Cc2cc(C)no2)ccc1O.O=C(O)CC(O)(CC(=O)O)C(=O)O	-9.061%

Some entries from above, unchanged:

SMILES,Percent Effect
O=C(O)c1cc(S(=O)(=O)Nc2ccc(Cl)cc2)cc2c1OCCO2,-2.51%
CC(C)c1nnc2n1CCN(CCC(=O)Nc1sccc1C#N)C2,1.985%
Cc1nc(C)n(CC2CCCN2Cc2nc3ccccc3nc2C)n1 (stereo unspecified),-16.3%
COc1c(C)cnc(CN2CCOC(Cn3cc(C)cn3)C2)c1C (stereo unspecified),15.72%
c1cc(-c2c[nH]c([C@@H]3COCCN3CC3CC3)n2)ccn1,2.261%
CN(C)c1ccc(CC2CCN(c3cnccn3)CC2)nn1,11.98%
COC(=O)N1CCCC(NC(=O)NCc2nc(C)cs2)C1 (stereo unspecified),-0.4621%
Cc1noc(C2CCCN(C(=O)c3cc(Cl)cn3C)C2)n1 (stereo unspecified),5.096% and 8.215%
Cl.c1cc(NCc2ccncc2)nc(C2CCCN2)c1 (stereo unspecified),3.723% and 26.03%